Measurements reported in PubChem BioAssay AID1259424 (University of Nebraska Medical Center, 2018).
The whole screen tested about 14,000 reagents; below is an unselected part. 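Higher correlation or smaller distance means closer resemblance to KSR1 loss; control wells, including KSR1 knockdowns, recur on many plates.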 Not all columns of the deposit are shown. Not stated in the record: the time to read-out.

Assay: 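Seek colon cancer survival genes behaving like KSR1, using a six-gene signature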 (primary screen)
System: human HCT116 colon cancer cells
Reagent: siRNA pool against human genes, 50 nM
Read-out: 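Six signature mRNAs by branched-DNA multiplex assay, scaled to two housekeeping genes and non-targeting median, log2; matched to mean KSR1 knockdown profile by Pearson correlation and euclidean distance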
Scale: mean correlation with KSR1 profile: higher = expression change more like KSR1 knockdown; mean distance from KSR1 profile: higher = expression change less like KSR1 knockdown

target | mean correlation with KSR1 profile | mean distance from KSR1 profile
THAP10 | -0.0154 | 1.59
GBP3 | -0.577 | 2.54
EMC3 | -0.507 | 3.33
ASB1 | -0.404 | 4.09
MYBPH | -0.266 | 2.11
LRIF1 | -0.574 | 1.75
SDHAF3 | 0.437 | 1.98
C11orf71 | -0.0345 | 2.01
RASAL3 | 0.13 | 1.45
SEMA7A | 0.923 | 2.81
CRB1 | 0.289 | 1.84
FSTL3 | -0.0494 | 4.37
KATNIP | -0.778 | 2.85
SDF2L1 | -0.392 | 2.91
CLCN4 | -0.459 | 4.45
CORO6 | 0.415 | 2.23
PPIG | -0.107 | 4.43
SIGIRR | -0.225 | 2.1
PYROXD1 | 0.589 | 1.96
LTAP1 | 0.178 | 0.866
TSC2 | -0.275 | 2.27
MCM7 | 0.356 | 1.03
FOLR2 | 0.283 | 1.2
CITED4 | 0.735 | 0.829
SERPINA10 | 0.23 | 4.04
KRT9 | 0.576 | 3.28
CHPF2 | -0.784 | 2.53
PRB4 | 0.416 | 2.34
SEMA5A | -0.00132 | 2.74
COXFA4L3 | 0.925 | 2.83
PTK2B | 0.609 | 2.69
MTHFD1 | -0.466 | 2.46
ITPR1 | 0.0787 | 2.69
EPB41L4B | -0.721 | 1.11
TRPC3 | -0.72 | 2
GRM3 | 0.728 | 1.57
PAWR | 0.545 | 1.42
SP100 | 0.222 | 2.06
GPR4 | 0.425 | 1.8
PGK2 | 0.271 | 1.7
EIPR1 | -0.575 | 1.74
UBA7 | -0.123 | 1.52
LBHD1 | -0.377 | 1.76
SERPINA1 | 0.299 | 3.56
DPF3 | 0.281 | 0.808
ZNF639 | -0.473 | 3.49
STRADA | -0.178 | 2.34
CHSY1 | -0.474 | 2.2
EPC2 | -0.0545 | 1.27
PCLAF | -0.692 | 1.3

Part of the list above, reduced to “mean correlation with KSR1 profile”:
KATNIP	-0.778
SDF2L1	-0.392
CLCN4	-0.459
CORO6	0.415
PPIG	-0.107
SIGIRR	-0.225
PYROXD1	0.589
LTAP1	0.178
